Data as given in PubChem BioAssay AID743454 (Peter MacCallum Cancer Centre, 2014).
In all, the deposit lists about 18,000 reagents; below is an unselected part. Over the whole deposit, 450 (2.5%) were called active. 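Single biological run; no consistent viability z cut-off exists, so the class columns, not z-scores, define the calls.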

Assay: 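Search for knock-downs that restore vorinostat killing in resistant colon cancer cells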 (primary screen)
System: human HCT116-VR colon cancer cells, selected for vorinostat resistance
Reagents: siRNA pool against human genes, 40 nM siRNA pool
Duration: vorinostat for 24 h, read-out about 72 h after transfection
Challenge: vorinostat at 2.5 µM final
Detection: 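Cell viability by CellTiter-Fluor and caspase 3/7 activity by luminescence, each scaled to mock wells per plate, duplicates averaged, then robust z-scored over all plates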
Direction: viability robust z-score: higher = more viable cells than screen typical; caspase robust z-score: higher = more caspase 3/7 activity than screen typical
Rule for the call: 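a knock-down is a hit when classed RV1 or RV2 for lowered viability, or CA1 or CA2 for caspase activation; those lethal without drug were dropped; hits were retested singly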

no.	Gene	viability hit class	caspase hit class	viability robust z-score	caspase robust z-score	Outcome
1	AKR7A2 (aldo-keto reductase family 7 member A2)	no change	no change	-0.47	-0.44	inactive
2	TRIM41 (tripartite motif containing 41)	no change	no change	-1.05	1.36	inactive
3	DNA2 (DNA replication helicase/nuclease 2)	no change	no change	-1.66	3.75	inactive
4	ARHGEF16 (Rho guanine nucleotide exchange factor 16)	no change	no change	1.21	-0.57	inactive
5	SSR3 (signal sequence receptor subunit 3)	no change	no change	-1.3	1.92	inactive
6	TBC1D29P (TBC1 domain family member 29, pseudogene)	no change	no change	-0.41	0	inactive
7	RPE65 (retinoid isomerohydrolase RPE65)	no change	no change	-0.47	-0.49	inactive
8	RBBP8 (RB binding protein 8, endonuclease)	no change	CA1 (caspase activation)	-0.12	6.83	active
9	TAOK3 (TAO kinase 3)	no change	no change	1.12	-0.94	inactive
10	FUNDC1 (FUN14 domain containing 1)	no change	no change	0.98	-0.24	inactive
11	GRHL3 (grainyhead like transcription factor 3)	no change	no change	-2.04	2	inactive
12	CDX4 (caudal type homeobox 4)	no change	no change	1.58	-0.18	inactive
13	MTSS1 (MTSS I-BAR domain containing 1)	no change	no change	-1.28	-1.09	inactive
14	DBNL (drebrin like)	no change	no change	0.7	1.6	inactive
15	SLC18A1	no change	no change	-0.81	-0.35	inactive
16	GAL3ST1 (galactose-3-O-sulfotransferase 1)	no change	no change	-0.34	1.1	inactive
17	CHRM1 (cholinergic receptor muscarinic 1)	no change	no change	1.45	0.17	inactive
18	TRIM49B (tripartite motif containing 49B)	no change	CA1 (caspase activation)	-0.57	9.75	active
19	ZNF462 (zinc finger protein 462)	no change	no change	-2	0.28	inactive
20	ETFBKMT	no change	no change	0.15	-0.34	inactive
21	RPS13 (ribosomal protein S13)	no change	no change	-4.81	-1.64	inactive
22	RINL (Ras and Rab interactor like)	no change	no change	-0.31	-0.5	inactive
23	ARHGEF39 (Rho guanine nucleotide exchange factor 39)	no change	no change	-0.34	-0.93	inactive
24	ACYP2 (acylphosphatase 2)	no change	no change	1.31	0.1	inactive
25	CNBD2 (cyclic nucleotide binding domain containing 2)	no change	no change	0.89	-0.15	inactive
26	UBE2E2 (ubiquitin conjugating enzyme E2 E2)	no change	no change	-0.44	-0.46	inactive
27	AK5 (adenylate kinase 5)	no change	no change	1.44	0.48	inactive
28	GLDC (glycine decarboxylase)	no change	no change	0.28	0.08	inactive
29	HASPIN (histone H3 associated protein kinase)	no change	no change	-0.72	-0.04	inactive
30	CAMK2A (calcium/calmodulin dependent protein kinase II alpha)	no change	no change	-0.92	0.7	inactive
31	PBK (PDZ binding kinase)	no change	no change	1.42	-0.7	inactive
32	SLC4A1	no change	no change	1.27	-0.07	inactive
33	CEP44 (centrosomal protein 44)	no change	CA1 (caspase activation)	0.97	5.92	active
34	QRICH2 (glutamine rich 2)	no change	no change	0.24	-0.74	inactive
35	POPDC2 (popeye domain cAMP effector 2)	no change	no change	-1.36	3.73	inactive
36	MAPKAPK3 (MAPK activated protein kinase 3)	no change	no change	0.04	0.8	inactive
37	KRT81 (keratin 81)	no change	no change	-2.27	4.83	inactive
38	CDON (cell adhesion associated, oncogene regulated)	no change	no change	1.06	0.06	inactive
39	SLIT1 (slit guidance ligand 1)	no change	no change	1.25	0.51	inactive
